Z-score data for 68 sequences are collected here from PubChem BioAssay AID1508600 (Functional Genomics Laboratory (NCATS/FGL), 2020).

Hit rate of the full screen: of about 53,000 sequences, about 3,700 (7%) were called active.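 How the source made its calls: active means gene knockdowns whose robust z-score for IL-1 alpha signal is at least 2 or at most -2, so actives lie on both sides; inactive means the rest.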 Some of the results follow.

A short description of this experiment: Components of the Cytosolic LPS Sensing Pathway: Gene Identification via Genome-wide siRNA Screen.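 Further: robust z of the log signal after scaling to non-targeting control siRNA wells of the plate.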 The settings on record: RAW264.7 macrophages, IL-1a HTRF, actives lie on both sides, screened at 100 nM (by protocol), cells primed 5 h with Pam3CSK4 first. The procedure, abridged: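 Read-out: IL-1a HTRF on supernatant, divided by plate negative-control median ×100, log-transformed and converted to robust z-score. Cells were RAW264.7 given 100 nM siRNA, Pam3CSK4-primed 5 hours, then LipidA-transfected 24 hour.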
GGAUGAUGCUCGAAAGAAGTT against Tssk1: the z-score was inactive: 0.462. Turning to GGAUUACGGUGGGAUCAUGTT against Faxc, the z-score is inactive: -1.38. The same measure for GGAUGUGGUGGAAGAUUUCTT against Krt7: inactive: 1.2. On to GGCUUGACUCCAAGACUGUTT against Mtch2, for which the z-score was inactive: -0.0944. For GGAGAUUGGCAUCCAGAACTT against Podxl2, the z-score was inactive: 0.954. Then CCGAAUGAUCACUCAAACUTT against Rbms1, with inactive: 0.543; and CGAGUGUUAGAUGCUAAAATT against Lamc2, with inactive: 1.32.

CCUCUUCUUGUUUCAAGGGTT against Piezo2: the z-score was inactive: 0.062. Consider CGCGCCUGAAAAUGUUGAATT against Pdik1l, for which the z-score was inactive: 0.0427. As for GCGUGAGAUACCAUAUUAUTT against Bank1, the z-score is inactive: -1.47. As to CGGGAUCUAUCCACUGAUGTT against Nrbp2, the z-score was inactive: -0.983.

As to GGUAUCAAAACAACAGUCCTT against Upk1b, the z-score is inactive: -0.709. Turning to GGAACAUGGCACUUUCGUGTT against Pcdh10, the z-score is inactive: 0.905. The same measure for CGGGCAUAAAGGUUACAUATT against Hspa4: inactive: 1.01; for GCCCAUUAUGCAAGAAUAATT against Ppp1r17: inactive: -1.15; for GGUUCUGAUUUUUAGUGGUTT against Dnaaf6b: inactive: 1.11. In the case of CUCUAUCUCAUUGCAGUCCTT against Olfr671, the z-score was inactive: -0.0809. Then GGGACAUUCCCUGAACUUCTT against Ccdc142, with inactive: 0.306. In the case of GGAGAAAUGUUGUUGUCUUTT against Kcng3, the z-score is inactive: -0.327. The same measure for GGUGCCUGAGAUGCCCAAUTT against Defa-rs12: inactive: -0.117; for CGUUUUACCACCGUGUGCUTT against Gfra1: inactive: -0.284. Regarding “GGCAUUGAUCACUGACAGCTT against 9530077C05Rik”, the z-score is inactive: 0.827. With GCACUUAACAGAAUGAAUUTT against Alg2, the z-score was inactive: 0.532. Then ACGUAGGUUAACUGAACAUTT against Zscan26, with inactive: -0.268. The same measure for CCAUGGAAUCUCCUAUACCTT against C4bp: inactive: -0.679; for GGACUCCCUGGAUUUCAGATT against Rapgef3: inactive: -1.34; for GGACCCUGAACAGACAACGTT against Get3: inactive: -0.164. For GCAUGCUGACACUUACUUUTT against Olfr878, the z-score is inactive: -0.872. With GGACUUUCUCAAGGACAGATT against Wnt5a, the z-score is inactive: -0.399. For the sequence GGUGUGCUAGAAGAUAUUATT against Actr10, the z-score is inactive: -0.488. Then “GGCAAAGCUUAUGGAAAGCTT against 9130221H12Rik”, with inactive: 0.554; and GCUGAGCUCAGAACAUCUATT against Muc5b, with inactive: 0.357. In the case of CCAGAAGCCAUUAACUAUGTT against Lck, the z-score was inactive: -0.479. Then CGUGGGUAGAUCCACAUUUTT against Tnip3, with inactive: 1.59; and GGUGGAUUUCUAUGUUCAATT against Fblim1, with inactive: 0.391. The same measure for GGUCCUGCGCUUAUUUGAGTT against Pah: inactive: 1.05. In the case of CGAUUCCUUUGUAACGAAATT against Aldh5a1, the z-score is inactive: 1.04.

Take GGAUGACAUGAGCAUCAGUTT against Fdft1: the z-score was inactive: -0.366. Take GCCAAAAGUCUCAGACUGATT against Hscb: the z-score is inactive: -0.976. Regarding GGAAUUCUGCUUCAUGGAUTT against Cdc42ep4, the z-score was inactive: 0.209. Turning to GGAAAAGUUGAUUUCUCUATT against Olfr453, the z-score was inactive: 0.437. The same measure for GAGUACCAGCUGUUGUUCATT against Olfr392: active: 4.22. Turning to CCAAGCCAAGCAAUCUUGATT against Chat, the z-score was inactive: -0.247. Then GGAGCUAAUAAUGGUCAAATT against Prrt3, with inactive: 0.92; and CCCUAAGUUCUCGUUUCUGTT against Cherp, with inactive: 0.765.

As for GGAAUUCGGGAAAUUGGUCTT against Aasdh, the z-score was inactive: 0.33.

On to GGACCUACGUGUAUGUGCUTT against Nudt3, for which the z-score is inactive: -0.673.

With GCUAUGUGGACGUGACCUATT against Chrnb4, the z-score was inactive: -0.739. For GGAUGACUAUUUCAGAAACTT against Spock1, the z-score was inactive: -0.605. With GAGAGCGGAGAGAUCAAAGTT against Iltifb, the z-score is inactive: 0.108.

In the case of GGGCUUCAUCAACUAUCUUTT against Spint1, the z-score is inactive: 1.03. Then CGGCUUACCAGUCCUGUUUTT against Adgra2, with inactive: 0.609; and GGACCAAGAUUGGUUUCAGTT against Fbxo45, with inactive: 0.118; and GGUGCUUCCAGAAUCUUUATT against Epha5, with inactive: 0.517. The same measure for CCUGGUGAUUAGUACUUUATT against Grpel1: inactive: 1.51; for GGAUUUGUUUUCACCAAGATT against Dmd: inactive: 0.3; for GGUGAUGCCUGUGAAGACATT against Il3ra: active: 2.04. In the case of GGCUAGAAGAUAAAGAUGATT against Tmpo, the z-score is inactive: 0.535.

GGUUAAAGAAGCCAUGAAATT against Olfr480: the z-score was inactive: -0.883. As for GCGUGUUGUGAUGUCACCUTT against Cisd1, the z-score is inactive: -0.0193. Then CCCUUAGUGAACUUCUGUUTT against Tubb2a, with inactive: 0.697; and GCUUAUCAGGAAAUACAGGTT against Fam168b, with inactive: 0.527. For GCAUGGUAUUAGGUUUUUUTT against Rab10, the z-score was inactive: 1.61. Turning to GGAUCAGAAAUCAUCAAGCTT against Tsg-5, the z-score was inactive: -1.92.

As for “GGGACUUAAGGUUAGACACTT against E330018D03Rik”, the z-score is inactive: 0.163. As to GGAUGAAAGGCGGAUACUUTT against Etv4, the z-score was inactive: 0.4. Then GGUUUUUCUCUUGUGAUUUTT against Vegfc, with inactive: -0.677; and GCAGUCUUUCUAAACAUAUTT against Bend7, with inactive: -0.449.
